Measurements taken from US6570069B1, “Nucleic acids encoding plant inhibitors of apoptosis and transgenic cells and plants expressing them” (priority 2000, dated 2003).
Results are given in words; binding and its absence hold for the method and conditions named. Some results given as binding are weak or reduced against the parent protein; the word gives no strength. Where a sequence is shown, tags or fusion partners need not be part of it.

Sequences of proteins named here, by UniProt entry; tags and fusion partners are left off.
UniProt P55211: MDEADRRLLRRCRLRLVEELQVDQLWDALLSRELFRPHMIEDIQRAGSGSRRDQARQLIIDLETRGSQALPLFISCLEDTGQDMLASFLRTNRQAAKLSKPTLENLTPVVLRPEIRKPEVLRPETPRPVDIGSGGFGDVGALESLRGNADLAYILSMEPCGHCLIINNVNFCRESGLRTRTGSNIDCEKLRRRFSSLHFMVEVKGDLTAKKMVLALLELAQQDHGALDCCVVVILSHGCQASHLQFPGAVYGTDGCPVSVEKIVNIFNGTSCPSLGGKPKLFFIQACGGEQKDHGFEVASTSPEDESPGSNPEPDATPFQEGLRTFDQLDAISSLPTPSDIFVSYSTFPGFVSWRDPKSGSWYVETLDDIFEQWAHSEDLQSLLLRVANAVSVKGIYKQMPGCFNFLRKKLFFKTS

Target: [35S]pro-caspase-9 (mammalian) (UniProt P55211)
Test: GST pull-down of in vitro-translated [35S]pro-caspase-9 on glutathione-Sepharose, SDS-PAGE and autoradiography

B1: GST-CpIAP (other)
chain: MSDLRLEEVRLNTFEKWPVSFLSPETMAKNGFYYLGRSDEVRCAFCKVEIMRWKEGEDPAADHKKWAPQCPFVKGIDVCGSIVTTNNIQNTTTHDTIIGPAHPKYAHEAARVKSFHNWPRCMKQRPEQMADAGFFYTGYGDNTKCFYCDGGLKDWEPEDVPWEQHVRWFDRCAYVQLVKGRDYVQKVITEACVLPGENTTVSTAAPVSEPIPETKIEKEPQVEDSKLCKICYVEECIVCFVPCGHVVACAKCALSVDKCPMCRKIVTSVLKVYFS
notes: range 1-275
For B1, the binding was “binds”.
